Results: patent US6716811B1, “Compounds having affinity for the granulocyte-colony stimulating factor receptor (G-CSFR) and associated uses” (Affymax, Inc., priority 2000, dated 2004)
No constants are given. Whether binding was seen depends on the method and setting. Some binding calls cover weakened binding; strength is not graded here.

Protein sequences, listed by entry. Tags and fused reporters are not part of them. Residues count along the entry.
UniProt Q99062, residues 25-627: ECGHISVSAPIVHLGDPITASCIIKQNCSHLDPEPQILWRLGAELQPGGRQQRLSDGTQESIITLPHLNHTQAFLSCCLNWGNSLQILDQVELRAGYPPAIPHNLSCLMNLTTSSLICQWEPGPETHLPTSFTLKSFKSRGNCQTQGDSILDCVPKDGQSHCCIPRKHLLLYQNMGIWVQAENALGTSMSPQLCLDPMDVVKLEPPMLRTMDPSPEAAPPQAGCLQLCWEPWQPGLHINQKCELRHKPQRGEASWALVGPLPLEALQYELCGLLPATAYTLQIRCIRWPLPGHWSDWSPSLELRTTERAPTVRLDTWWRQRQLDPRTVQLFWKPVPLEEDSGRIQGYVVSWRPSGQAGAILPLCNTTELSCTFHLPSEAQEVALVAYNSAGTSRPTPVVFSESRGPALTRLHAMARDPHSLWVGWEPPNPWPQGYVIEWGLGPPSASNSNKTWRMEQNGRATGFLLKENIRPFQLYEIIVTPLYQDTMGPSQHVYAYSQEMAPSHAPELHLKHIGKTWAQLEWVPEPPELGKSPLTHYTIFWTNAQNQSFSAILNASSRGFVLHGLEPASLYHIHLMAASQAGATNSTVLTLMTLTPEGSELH

Key:
[1] = target: granulocyte-colony stimulating factor receptor (G-CSFR), purified (UniProt Q99062); test: competition with 125I-G-CSF on immobilised G-CSFR; column 'Competitive Binding?'
[2] = target: granulocyte-colony stimulating factor receptor (G-CSFR), purified (UniProt Q99062); test: specific binding to G-CSFR; column 'Specific Binding?'

Row | binding [1] | binding [2] | Binder
1 | binds | binds | CADEVMHFCC
2 | binds | binds | CAGEVMHMCC
3 | – | binds | CVPWMFYDLC
4 | binds | binds | DWQKTIPAYW
5 | – | binds | DTWLELESRY
6 | – | binds | SRTESGWVWT
7 | binds | binds | STSERAWFCG
8 | binds | binds | ASWSERGWFC
9 | binds | binds | DEMVYTVPYW
10 | binds | binds | ELSSEREWFC
11 | binds | binds | CSFVQLNSIC
12 | – | binds | DMVYAYPPWS
13 | – | binds | QRANSGWVWV
14 | – | binds | DYDNSGWVWH
15 | binds | binds | ETWGERDWFC
16 | binds | binds | CPHWTSYYMC
17 | binds | binds | ADNAERGWFC
18 | binds | binds | DMQGERGWFC
19 | – | binds | EQSNSGWVWV
20 | binds | binds | HTTNEQFFMC
21 | – | binds | SNESGWVWLP
22 | binds | binds | YETAERSYFC
23 | binds | binds | CPDWYQSYMC
24 | binds | binds | CNREIEAMCC
25 | binds | binds | CDVWQLFDRC
26 | – | binds | CDPWMFYDLC
27 | binds | binds | CACMLRVVHC
